Test system: test panelists
Experiment: Round table qualitative assessment of quality of sweetness and undesirable attributes, scale of 1-10
Assay type: in vivo
Experimental: Round table evaluations were performed with 7 test panelists. Equal sweet 5 SEV concentrations in neutral pH water were made for Thaumatin II (purity greater than 90%), Rebaudioside A, and Rebaudioside M. These equal sweet solutions were also mixed at 50% of Thaumatin II and 50% Reb M or RebA and compared to the individual components. All solutions were coded and blinded from panelists. Panelists were asked to provide a qualitative assessment on a scale of 1-10 of the quality of sweetness (10 being the highest quality of sweetness) and undesirable attributes (10 being most undesirable) of each solution using a 5% sucrose and 500 ppm RebA solutions as controls. For the quality of sweetness, the score 10 was assigned to 5% sucrose. Vice versa, the score 1 was assigned to and 500 ppm RebA. For undesirable attributes, the scores 10 and 1 were assigned to 500 ppm RebA and 5% sucrose, respectively.

Structure (SMILES) | Taste of control solution (5% solution) | Taste of control solution (500 ppm solution)
OC[C@H]1O[C@@](CO)(O[C@H]2O[C@H](CO)[C@@H](O)[C@H](O)[C@H]2O)[C@@H](O)[C@@H]1O [sucrose] | sweet taste without any off notes | 
C=C1C[C@@]23CC[C@H]4[C@@](C)(CCC[C@@]4(C)C(=O)O[C@@H]4O[C@H](CO)[C@@H](O)[C@H](O)[C@H]4O)[C@@H]2CC[C@]1(O[C@@H]1O[C@H](CO)[C@@H](O)[C@H](O[C@@H]2O[C@H](CO)[C@@H](O)[C@H](O)[C@H]2O)[C@H]1O[C@@H]1O[C@H](CO)[C@@H](O)[C@H](O)[C@H]1O)C3 [Rebaudioside A] |  | very strong artificial off taste

Reference: patent US20240349768A1, “SWEETENER BLEND COMPRISING THAUMATIN AND ONE OR MORE REBAUDIOSIDE” (NOMAD BIOSCIENCE GMBH, priority 2021, published 2024)
